Test results: publication PMC10095748
These are yes or no findings as the source states them, for the method shown. In cells and extracts the contact can be indirect. Some binding calls cover weakened binding; strength is not graded here.

Chains of the proteins cited; added tags and fusions are not shown.
UniProt P08183: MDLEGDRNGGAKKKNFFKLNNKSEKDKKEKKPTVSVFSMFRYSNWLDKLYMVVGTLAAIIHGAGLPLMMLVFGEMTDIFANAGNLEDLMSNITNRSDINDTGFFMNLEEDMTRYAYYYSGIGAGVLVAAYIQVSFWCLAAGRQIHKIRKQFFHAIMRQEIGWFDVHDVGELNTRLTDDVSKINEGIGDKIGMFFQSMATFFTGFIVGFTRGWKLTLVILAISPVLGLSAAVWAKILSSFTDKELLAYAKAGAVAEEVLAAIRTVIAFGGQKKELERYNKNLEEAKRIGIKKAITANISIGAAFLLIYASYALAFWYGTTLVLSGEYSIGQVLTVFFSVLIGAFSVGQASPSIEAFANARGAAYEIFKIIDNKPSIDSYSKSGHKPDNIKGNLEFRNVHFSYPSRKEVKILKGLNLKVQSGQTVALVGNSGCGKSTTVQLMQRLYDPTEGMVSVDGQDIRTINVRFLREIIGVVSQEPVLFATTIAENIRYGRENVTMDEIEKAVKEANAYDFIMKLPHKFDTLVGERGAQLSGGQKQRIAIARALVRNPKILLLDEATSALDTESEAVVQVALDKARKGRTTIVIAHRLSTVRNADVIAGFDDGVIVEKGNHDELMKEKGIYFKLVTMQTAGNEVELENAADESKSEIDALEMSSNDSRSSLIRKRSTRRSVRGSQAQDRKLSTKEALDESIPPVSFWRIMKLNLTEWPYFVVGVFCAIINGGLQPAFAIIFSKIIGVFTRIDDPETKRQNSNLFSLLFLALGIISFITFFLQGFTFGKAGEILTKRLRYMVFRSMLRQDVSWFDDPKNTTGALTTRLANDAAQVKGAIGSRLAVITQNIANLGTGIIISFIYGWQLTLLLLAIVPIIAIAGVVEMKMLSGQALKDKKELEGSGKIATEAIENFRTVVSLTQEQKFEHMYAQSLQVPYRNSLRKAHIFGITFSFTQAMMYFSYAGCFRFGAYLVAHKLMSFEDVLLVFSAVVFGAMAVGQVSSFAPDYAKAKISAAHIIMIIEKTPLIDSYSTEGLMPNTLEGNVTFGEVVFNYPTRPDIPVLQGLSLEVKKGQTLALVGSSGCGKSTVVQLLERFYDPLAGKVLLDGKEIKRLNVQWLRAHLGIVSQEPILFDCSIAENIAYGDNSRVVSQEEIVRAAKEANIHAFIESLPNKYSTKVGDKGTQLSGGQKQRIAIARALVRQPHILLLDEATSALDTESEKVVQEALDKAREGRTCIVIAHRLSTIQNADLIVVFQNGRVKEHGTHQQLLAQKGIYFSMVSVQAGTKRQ

T1: astrocyte elevated gene-1 (AEG-1) (human (endogenous in MCF-7/DDP)) (UniProt Q86UE4)
T1 sequence: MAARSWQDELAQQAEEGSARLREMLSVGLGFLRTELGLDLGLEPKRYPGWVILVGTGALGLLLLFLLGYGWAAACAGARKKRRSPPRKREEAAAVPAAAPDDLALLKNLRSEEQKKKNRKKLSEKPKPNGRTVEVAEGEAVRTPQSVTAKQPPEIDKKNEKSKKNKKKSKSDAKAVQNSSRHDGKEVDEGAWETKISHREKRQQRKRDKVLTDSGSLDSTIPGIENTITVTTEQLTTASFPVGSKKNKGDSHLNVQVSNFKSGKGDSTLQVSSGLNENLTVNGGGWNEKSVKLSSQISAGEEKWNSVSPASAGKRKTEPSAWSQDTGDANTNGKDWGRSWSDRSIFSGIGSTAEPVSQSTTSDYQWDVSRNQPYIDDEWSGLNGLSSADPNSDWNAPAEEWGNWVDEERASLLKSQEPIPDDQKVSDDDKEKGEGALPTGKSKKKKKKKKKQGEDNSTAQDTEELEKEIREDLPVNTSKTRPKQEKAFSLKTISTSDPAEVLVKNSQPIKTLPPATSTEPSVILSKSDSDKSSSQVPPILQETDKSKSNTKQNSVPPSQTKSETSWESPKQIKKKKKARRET


Columns and labels:
[1] = target: T1, astrocyte elevated gene-1 (AEG-1) (human (endogenous in MCF-7/DDP)); assay: co-IP; MCF-7/DDP cell lysates incubated overnight with anti-AEG-1 antibody (1 ug) or IgG and protein A/G beads; washed with lysis buffer; immunoblot with anti-AEG-1, anti-RRS1 and anti-MDR1
[2] = target: multidrug resistance protein 1 (MDR1) (human (endogenous in MCF-7/DDP)) (UniProt P08183); assay: as above

Row | binding [1] | binding [2] | Molecule
1 | binds | – | multidrug resistance protein 1 (MDR1) (from UniProt P08183 1-1280)
2 | binds | no binding | human regulator of ribosome synthesis 1 (RRS1) (protein, UniProt Q15050 1-365) MEGQSVEELLAKAEQDEAEKLQRITVHKELELQFDLGNLLASDRNPPTGLRCAGPTPEAELQALARDNTQLLINQLWQLPTERVEEAIVARLPEPTTRLPREKPLPRPRPLTRWQQFARLKGIRPKKKTNLVWDEVSGQWRRRWGYQRARDDTKEWLIEVPGNADPLEDQFAKRIQAKKERVAKNELNRLRNLARAHKMQLPSAAGLHPTGHQSKEELGRAMQVAKVSTASVGRFQERLPKEKVPRGSGKKRKFQPLFGDFAAEKKNQLELLRVMNSKKPQLDVTRATNKQMREEDQEEAAKRRKMSQKGKRKGGRQGPGGKRKGGPPSQGGKRKGGLGGKMNSGPPGLGGKRKGGQRPGGKRRK
